Assay results: article doi:10.1101/2025.02.06.636770
The exact form of at least one protein or probe is not confirmed.

The sequences below were run on OsVOZ1-MBP (assay: EMSA).
“AGCCAGTGGCGATAAGAAATGTGGGGCCCACATGGCCTTATCGCCACTGGCT (double strand) [JAZ9-EMSA]”: binds.
“AGCCAGTGGCGATAAGCATAGTATCCCACAACCAAACTTATCGCCACTGGCT (double strand) [JAZ12-EMSA]”: binds.
“AGCCAGTGGCGATAAGCCATGTGGGCCCCACATTTCCTTATCGCCACTGGCT (double strand) [JAZ11-EMSA]”: binds.
“AGCCAGTGGCGATAAGCCCACCCCACCCCACCTTATCGCCACTGGCT (double strand) [CCCAC-EMSA]”: binds.
“AGCCAGTGGCGATAAGCGTACTCCCACCCACCCCGGCTTATCGCCACTGGCT (double strand) [JAZ14-EMSA]”: binds.
“AGCCAGTGGCGATAAGGCCCACAATCTCACGTGGGTCTTATCGCCACTGGCT (double strand) [JAZ15-EMSA]”: binds.
“AGCCAGTGGCGATAAGTAAACTGAGTGGGCAAACAACTTATCGCCACTGGCT (double strand) [JAZ5-EMSA]”: binds.
